Experimental data published in the supplement of paper PMC8732350.
Where a name gives a salt, the structure may show the parent alone. ± gives the standard deviation of the averaged measurements. This is one part of the list. Single values are uncertain here, since repeats match poorly.

System: A549
Experiment: surface PD-L1 immunofluorescence intensity relative to IFN-gamma-only control (ratio); higher = more PD-L1 expression
Details: 10 µM; exposure time 24 h; IFN-gamma 100 ng/mL

SMILES	surface PD-L1 immunofluorescence intensity
CO[C@@H]1[C@@H](O[C@@H]2O[C@H](C)[C@@H](O[C@H]3C[C@@](C)(O)[C@@H](OC(=O)CC(C)C)[C@H](C)O3)[C@H](N(C)C)[C@H]2O)[C@@H](CC=O)C[C@@H](C)[C@@H](O)/C=C/C=C/C[C@@H](C)OC(=O)C[C@H]1OC(C)=O [Josamycin]	0.899
O=c1oc2c(O)c(O)cc3c(=O)oc4c(O)c(O)cc1c4c23 [Ellagic Acid]	1.05
O=c1oc2c(O)c(O)cc3c(=O)oc4c(O)c(O)cc1c4c23 [Ellagic acid]	1.03
NS(=O)(=O)c1cc2c(cc1Cl)NC(C1CC3C=CC1C3)NS2(=O)=O (stereo not drawn) [Cyclothiazide]	1.11
CC(=O)CC(c1ccccc1)c1c(O)c2ccccc2oc1=O (stereo not drawn) [Warfarin]	1.04
CNC(=O)c1cc(Oc2ccc(NC(=O)Nc3ccc(Cl)c(C(F)(F)F)c3)cc2)ccn1 [Sorafenib (Nexavar)]	0.981
OCc1ccccc1O[C@@H]1O[C@H](CO)[C@@H](O)[C@H](O)[C@H]1O [Salicin (Salicoside, Salicine)]	1.14
COc1ccc(NS(=O)(=O)c2ccc(I)cc2)cc1N1CCN(C)CC1	0.942
CN1C(CCl)Nc2cc(Cl)c(S(N)(=O)=O)cc2S1(=O)=O (stereo not drawn) [Methyclothiazide]	1.06
C=CC1=C(C(=O)O)N2C(=O)[C@@H](NC(=O)/C(=N\O)c3csc(N)n3)[C@H]2SC1 [Cefdinir (Omnicef)]	1.04
C=CC1=C(C(=O)O)N2C(=O)[C@@H](NC(=O)/C(=N\O)c3csc(N)n3)[C@H]2SC1 [Cefdinir]	0.985
Cc1cn([C@H]2C=C[C@@H](CO)O2)c(=O)[nH]c1=O [Stavudine]	0.997 ± 0.054
CC(=O)NS(=O)(=O)c1ccc(N)cc1 [Sulfacetamide Sodium]	0.969
CC(=O)NS(=O)(=O)c1ccc(N)cc1 [Sulfacetamide sodic hydrate]	0.865
CN(C)CCCN=c1c2ccccc2n(C)c2[nH]c(=O)n(C)c(=O)c12	0.963
NC(=O)CCCCn1ccc(NC(N)=NCC(F)(F)F)n1	0.865
CCCCCCCC/C=C\CCCCCCCC(N)=O [Oleamide]	1.01
COc1ccccc1N1CCN(CCCCNC(=O)c2ccc(-c3ccc(C(C)=O)cc3)cc2)CC1	0.899
CC(C)NC[C@@H](O)COc1ccc(CC(N)=O)cc1 [(R)-(+)-Atenolol]	0.979
NS(=O)(=O)c1cc2c(cc1C(F)(F)F)NCNS2(=O)=O [Hydroflumethiazide]	0.895
OC[C@H]1O[C@@H](n2cnc3c(N[C@H]4CCC[C@@H]4O)ncnc32)[C@H](O)[C@@H]1O	0.977
COC1(C2=NCCN2)COc2ccccc2O1 (stereo not drawn)	1
O=C(/C=C/c1ccc(O)cc1)c1ccc(O)cc1O [Isoliquiritigenin]	0.985
Cc1c(NC(=O)c2cccnc2)c(=O)n(-c2ccccc2)n1C [Nifenazone]	1.06
CS(=O)(=O)OCCCCOS(C)(=O)=O [Busulfan]	0.958
OCc1c[nH]c2ccccc12 [Indole-3-carbinol]	1.04
COC(=O)C1=C(C)NC(C)=C([N+](=O)[O-])[C@H]1c1ccccc1C(F)(F)F	1.06

SMILES	surface PD-L1 immunofluorescence intensity
O=C(Nc1ccccc1)C12CC1C(=NO)c1ccccc1O2 (stereo not drawn)	1.02
CC(C)(CO)c1cc2cc(NC(=O)C3(c4ccc5c(c4)OC(F)(F)O5)CC3)c(F)cc2n1C[C@@H](O)CO	1.01
Cc1cnc(-c2cc(N3CCN(C(=O)CCS(C)(=O)=O)CC3)ncc2Cl)c(C)c1	1
CC[C@@H]1C(=O)OC[C@@H]1Cc1cncn1C [Pilocarpine hydrochloride]	1.06
CC[C@@H]1C(=O)OC[C@@H]1Cc1cncn1C [Pilocarpine nitrate]	0.998
CN1CCc2c(c3ccccc3n2Cc2ccc(C(=O)NO)cc2)C1 [Tubastatin A HCl]	0.948
CC(=N)NCCCC[C@H](N)C(=O)O [L-NIL hydrochloride]	0.96
COc1cc2nccc(Oc3ccc(NC(=O)NC4CC4)c(Cl)c3)c2cc1C(N)=O [E7080 (Lenvatinib)]	0.9946 ± 0.0088
CCC(C)(Oc1ccc(C2(c3ccc(OC(C)(CC)C(=O)O)cc3)CCCCC2)cc1)C(=O)O (stereo not drawn) [Clinofibrate]	0.991
C[C@@H](O[C@H]1OCCN(Cc2nn(P(=O)(O)O)c(=O)[nH]2)[C@H]1c1ccc(F)cc1)c1cc(C(F)(F)F)cc(C(F)(F)F)c1 [Fosaprepitant dimeglumine]	1.05
CCn1c(=O)[nH]c2cc(Cl)c(Cl)cc21	0.937
CCCn1c(=O)c2[nH]c(C3CCCC3)nc2n(CCC)c1=O	0.986
O=C(CCNNC(=O)c1ccncc1)NCc1ccccc1 [Nialamide]	1.05
N/C(=N\C(=O)c1nc(Cl)c(N)nc1N)NCc1ccccc1 [Benzamil]	0.87
Cc1nc2ccccn2c(=O)c1CCN1CCC(C(=O)c2ccc(F)cc2)CC1 [Pirenperone]	0.818
N[C@@H](Cn1ccc(=O)n(Cc2ccccc2C(=O)O)c1=O)C(=O)O	0.959
O=C1[C@@H]2[C@H]3CC[C@H](C3)[C@@H]2C(=O)N1C[C@@H]1CCCC[C@H]1CN1CCN(c2nsc3ccccc23)CC1 [Lurasidone HCl]	0.877
CCCCC[C@H](O)/C=C/[C@H]1[C@H](O)CC(=O)[C@@H]1C/C=C\CCCC(=O)O [Prostaglandin E2]	0.933
Cn1cnc2c(F)c(Nc3ccc(Br)cc3F)c(C(=O)NOCCO)cc21	1.01
NC(=O)c1cnccn1 [Pyrazinamide]	1.09
NCCCCCc1c[nH]cn1 [Impentamine dihydrobromide]	0.945
NC(=O)c1cccc(-c2cccc(OC(=O)NC3CCCCC3)c2)c1	0.981
CCCN(CCC)CCc1cccc2c1CC(=O)N2 [Ropinirole HCl]	0.986
COc1ccc2cc([C@H](C)C(=O)O)ccc2c1 [Naproxen sodium]	0.959
COc1ccc2cc([C@H](C)C(=O)O)ccc2c1 [Naproxen]	0.875
COc1ccc2cc([C@H](C)C(=O)O)ccc2c1 [Naproxen (Aleve)]	1.08

Laid out differently: entries from further up
NC(=O)c1cccc(-c2cccc(OC(=O)NC3CCCCC3)c2)c1
  surface PD-L1 immunofluorescence intensity: 0.981
CCCN(CCC)CCc1cccc2c1CC(=O)N2 [Ropinirole HCl]
  surface PD-L1 immunofluorescence intensity: 0.986
